Measurements reported in PubChem BioAssay AID1671195 (Yale University, 2021).
Here is a random part of about 22,000 reagents. About 1,510 of all reagents (6.9%) count as active. 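Active includes knockdowns raising or lowering LDL uptake; positive z-scores mean more uptake, negative mean less.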 Entries without a mark were called inactive.

Screen: 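Knockdowns that increase or decrease uptake of fluorescent LDL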 (primary screen)
System: human Huh7 hepatoma cells
Reagents: siRNA pool against human genes, 18 nM
Timing: about 2 to 2.5 days of knockdown, then 8 h LDL uptake
Treatment: DiI-labelled LDL at 30 µg/ml for 8 h, in lipoprotein-deficient serum medium
Detection: 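Per-cell DiI-LDL intensity by automated imaging; well means scaled to the plate median and given as a robust z-score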
Reading the numbers: robust z-score: higher = more LDL uptake after knockdown
Rule for the call: 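Active when two or more replicates show a robust z-score above 2 or below -2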

Gene	robust z-score, replicate 1	robust z-score, replicate 2	robust z-score, replicate 3
CNIH4 (cornichon family member 4)	0.487	-1.52	0.238
TLR9 (toll like receptor 9)	-0.581	-1.23	-0.901
NDUFA13 (NADH:ubiquinone oxidoreductase subunit A13)	0.908	-0.0306	-1.65
USP2 (ubiquitin specific peptidase 2)	-0.825	-0.845	-1.2
PPP1R1B (protein phosphatase 1 regulatory inhibitor subunit 1B)	0.0851	-0.639	-0.225
SLC34A2	0.732	0.344	1.05
DIP2B (DIP2 acetate--CoA ligase B (putative))	0.463	0.43	0.164
NOTCH2NLA (notch 2 N-terminal like A)	1.08	-0.676	0.826
TP53I13 (tumor protein p53 inducible protein 13)	-1.04	-0.738	-1.67
MYO5B (myosin VB)	-0.418	-0.255	-0.0907
INSL4 (insulin like 4)	-0.76	-1.93	-1.03
ADAMTS10 (ADAM metallopeptidase with thrombospondin type 1 motif 10)	-1.66	-1.83	-1.08
TIA1 (TIA1 cytotoxic granule associated RNA binding protein)	0.959	1.52	1.53
RIN2 (Ras and Rab interactor 2)	-0.547	1.31	1.34
MBOAT1 (membrane bound glycerophospholipid O-acyltransferase 1)	0.948	1.32	0.865

Continued (2 carried over from the part before).
Gene	robust z-score, replicate 1	robust z-score, replicate 2	robust z-score, replicate 3
RIN2 (Ras and Rab interactor 2)	-0.547	1.31	1.34
MBOAT1 (membrane bound glycerophospholipid O-acyltransferase 1)	0.948	1.32	0.865
MYH2 (myosin heavy chain 2)	2.05	0.972	1.23
LOC401442	0.436	0.337	0.689
ZNF286A (zinc finger protein 286A)	0.4	0.132	0.161
DRG1 (developmentally regulated GTP binding protein 1)	-1.51	-1.52	-1.23
LOC440610 (retired record)	0.734	0.341	0.319
CHMP4B (charged multivesicular body protein 4B)	2.2 (active)	1.86	2.71
MCOLN3 (mucolipin TRP cation channel 3)	2.4 (active)	1.22	1.93
CCR3 (C-C motif chemokine receptor 3)	-1.12	-1.41	-1.74
ZC3HAV1L (ZC3HAV1 like)	-0.419	0.0551	0.323
TRAPPC1 (trafficking protein particle complex subunit 1)	0.614	0.361	0.482
LPL (lipoprotein lipase)	-0.0859	-0.000347	0.201
RPS6KC1 (ribosomal protein S6 kinase C1)	-0.33	-1.94	-0.459
MVB12B (multivesicular body subunit 12B)	0.175	-0.0921	0.0315
NOL4L-DT (NOL4L divergent transcript)	1.08	-0.0847	1.95
CDIN1 (CDAN1 interacting nuclease 1)	-0.0251	-0.506	-0.396
NELFB (negative elongation factor complex member B)	0.76	1.46	1.91
PTPN3 (protein tyrosine phosphatase non-receptor type 3)	-2 (active)	-1.8	-2.02
PTCD2 (pentatricopeptide repeat domain 2)	0.746	0.846	0.744
SLC8A3	0.602	0.71	0.169
ITGAE (integrin subunit alpha E)	0.984	-0.508	-0.772
GLRX (glutaredoxin)	-0.873	-0.184	-1.18
BRDT (bromodomain testis associated)	-2.65	-0.337	-0.358
IMMP2L (inner mitochondrial membrane peptidase subunit 2)	1.29	0.442	0.593
RND3 (Rho family GTPase 3)	-1.25	-0.237	-0.888
CHTF18 (chromosome transmission fidelity factor 18)	4.23 (active)	3.78	3.25
CTLA4 (cytotoxic T-lymphocyte associated protein 4)	-0.194	-0.671	-0.734
SLC5A9	0.537	1.22	0.926
CA7 (carbonic anhydrase 7)	0.0725	-0.37	0.143
MYCN (MYCN proto-oncogene, bHLH transcription factor)	1.24	0.819	0.0782
IFNA10 (interferon alpha 10)	0.00893	-0.261	0.557
NXPE4 (neurexophilin and PC-esterase domain family member 4)	0.992	0.0469	1.37
